In the assay the target is PprA, bacterial two-hybrid fusions (pUTpprA and pKNTpprA) (Deinococcus radiodurans) (UniProt O32504). Kind of assay: two-hybrid; bacterial two-hybrid (pUT18 and pKNT25 fusions) in E. coli BTH101; colonies on LB with X-gal and IPTG at 30°C overnight; β-galactosidase activity with ONPG.

From article PMC3893189 come the findings set out here.

These are yes or no findings as the source states them, for the method shown. Some binding calls cover weakened binding; strength is not graded here. Where a sequence is shown, tags or fusion partners need not be part of it.

B1: PprA, bacterial two-hybrid fusions (pUTpprA and pKNTpprA) (protein, UniProt O32504 1-300)
chain: MLPLAFLICSGHNKGSMARAKAKDQTDGIYAAFDTLMSTAGVDSQIAALAASEADAGTLDAALTQSLQEAQGRWGLGLHHLRHEARLTDDGDIEILTDGRPSARVSEGFGALAQAYAPMQALDERGLSQWAALGEGYRAPGDLPLAQLKVLIEHARDFETDWSAGRGETFQRVWRKGDTLFVEVARPASAEAALSDAAWDVIASIKDRAFQRELMRRSEKDGMLGALLGARHAGAKANLAQLPEAHFTVQAFVQTLSGAAARNAEEYRAALKTAAAALEEYQGVTTRQLSEVLRHGLRES
As to B1, the binding entry is reported as “binds”.
